# Data: paper PMC11941939 (International Journal of Molecular Sciences, 2025)
# What was measured:
# [1] = general procedure: Fmoc solid-phase peptide synthesis; Rink Amide MBHA resin (100-200 mesh, loading 0.78 mmol/g); HBTU/Oxyma/DIPEA; details: TFA salt; for final HPLC purity: analytical HPLC (Phenomenex Luna C18(2), photodiode array detector)
# [2] = general procedure: Fmoc solid-phase peptide synthesis; Rink Amide MBHA; HBTU/Oxyma/DIPEA; details: whole synthesis, TFA salt
# [3] = general procedure: Fmoc solid-phase peptide synthesis; Fmoc-Cys(Trt)-preloaded Wang resin; HBTU/Oxyma/DIPEA; details: whole synthesis, TFA salt
# [4] = whole synthesis, scale of the general procedure 50 mg resin
substance,measurement,setting,value
Ava-Lys(N3)-Glu-(Ava-BBN2)2,crude mass,[1]; whole synthesis,14 mg
same,isolated mass,[1]; whole synthesis,5.4 mg
same,isolated yield,[1]; [4],56%
H2N-Ava-Gln-Trp-Ala-Val-Sar-FA01010-Tle-NH2,crude mass,[1]; whole synthesis,28.7 mg
same,isolated mass,[1]; whole synthesis,13.1 mg
same,isolated yield,[1]; [4],19.2%
H2N-Ava-Lys(N3)-Gln-Trp-Ala-Val-Sar-His-FA01010-Tle-NH2,final HPLC purity,[1]; [4],90%
same,isolated yield,[1]; [4],45.3%
same,isolated mass,[2],21.5 mg
H-SKPLPEVTDEYC-OH,isolated mass,[3],38 mg
same,isolated yield,[1]; [4],61.3%
NOTA-Ava-Glu-(Ava-BBN2)2,conjugation yield,[1]; conjugation step,81%
same,final HPLC purity,[1]; conjugation step,99%
NOTA-Ava-Lys(N3)-BBN2,conjugation yield,[1]; conjugation step,68%
same,final HPLC purity,[1]; conjugation step,86%
NOTA-Ava-Lys(N3)-Glu-(Ava-BBN2)2,conjugation yield,[1]; conjugation step,83%
